# Measurements from the supplement of paper PMC10735217.
# Where a name gives a salt, the structure may show the parent alone. Some of the results follow. Single values are uncertain here, since repeats match poorly.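 The human kidney-derived cells carry a stably integrated construct of eight TEAD-binding elements driving luciferase, read by luminescence in a drug-repurposing library screen. A compound counts as a hit when its signal is more than five robust Z scores above the plate mean.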
# Tested on: HEK293A TEAD-LUC reporter
# Assay: TEAD-luciferase reporter activity (YAP activation), robust Z score vs plate; higher = stronger YAP/TEAD activation
# Conditions: 24 h
SMILES,TEAD-luciferase reporter activity (compound concentration: 2 uM),TEAD-luciferase reporter activity (compound concentration: 200 nM),TEAD-luciferase reporter activity (compound concentration: 10 uM)
C1CNCCN1,inactive: 0.743,,
"C1CNCCN1 [1,4-Diazacyclohexane]",,inactive: -0.483,inactive: -0.823
O=C(O)CCCC[C@@H]1SC[C@@H]2NC(=O)N[C@@H]21,inactive: -0.729,inactive: -0.188,inactive: 1.45
COc1ccc(C[C@@H](CN[C@@H](CCCNC(=N)N)C(=O)O)NC(=O)[C@@H]2CCCN2C(=O)[C@H](CO)NC(=O)[C@H](Cc2cccs2)NC(=O)CNC(=O)[C@@H]2C[C@@H](O)CN2C(=O)[C@@H]2CCCN2C(=O)[C@@H](N)CCCNC(=N)N)cc1,inactive: -0.0349,inactive: 1.82,inactive: 4.82
COC(=O)c1csc(C)c1N,inactive: -2.27,inactive: -0.586,inactive: -0.0778
O=C(c1ccc(Cl)cc1)N1CCC(N2CCOCC2=O)CC1,,inactive: -1.87,inactive: 0.536
CCn1nnc(C2=CCCN(C)C2)n1,inactive: -1.13,inactive: 1.94,inactive: 0.176
CN(C)CC1CCc2ccccc2C1=O (configuration not stated),inactive: -1.62,inactive: 1.71,inactive: -1.08
C[C@H]1C[C@@H]2[C@H]([C@@H](O)C[C@@]3(C)[C@H]2CC[C@]3(O)C(=O)COC(=O)CCC(=O)O)[C@@]2(C)C=CC(=O)C=C12 [Methylprednisolone sodium succinate],inactive: 1.13,inactive: -0.994,inactive: -0.329
CCCCC1CCc2cc(O)cc3c(CCN4CCN(c5cc(C)ccn5)CC4)c(C)n1c23 (configuration not stated),inactive: 1.27,inactive: -1.06,inactive: 1.11
NS(=O)(=O)OC[C@@H]1C[C@@H](n2ccc3c(N[C@H]4CCc5ccccc54)ncnc32)C[C@@H]1O [Pevonedistat],active: 9.31,inactive: 1.38,active: 6.57
NS(=O)(=O)OC[C@@H]1C[C@@H](n2ccc3c(N[C@H]4CCc5ccccc54)ncnc32)C[C@@H]1O,active: 7.33,,
NCCNCCNCCN [Trientine hydrochloride],inactive: 1.97,inactive: -0.575,inactive: 1.2
CN1CC[C@H](c2c(O)cc(O)c3c(=O)cc(-c4ccccc4Cl)oc23)[C@H](O)C1 [Flavopiridol],,inactive: -1.25,inactive: 0.207
CN1CC[C@H](c2c(O)cc(O)c3c(=O)cc(-c4ccccc4Cl)oc23)[C@H](O)C1 [alvocidib],inactive: -2.69,,
Cn1c(-c2cccnc2)c(CCCCCC(=O)O)c2cc(Cl)ccc21,inactive: 0.0152,inactive: 1.13,inactive: 0.886
OC(CCN1CCCC1)(c1ccccc1)C1CCCCC1 (configuration not stated),,inactive: -1.27,inactive: 0.364
OC(CCN1CCCC1)(c1ccccc1)C1CCCCC1 (configuration not stated) [Procyclidine hydrochloride],inactive: -0.787,,
COc1c(O[C@@H]2O[C@H](CO)[C@@H](O)[C@H](O)[C@H]2O)cc2c(c1OC)-c1ccc(SC)c(=O)cc1[C@@H](NC(C)=O)CC2 [thiocolchicoside],inactive: 0.788,inactive: -2.54,inactive: -2.13
CS(=O)(=O)Nc1ccc([N+](=O)[O-])cc1OC1CCCCC1,inactive: 0.339,inactive: 0.876,inactive: 0.878
COc1cccc2c1C(=O)c1c(O)c3c(c(O)c1C2=O)CC(O)(C(=O)CO)CC3OC1CC(N)C(O)C(C)O1 (configuration not stated) [Doxorubicin],inactive: 0.499,inactive: -0.638,inactive: -0.469
N#CC1CCN(C(=O)C2CN(c3ccc(F)cc3)C(=O)N2)CC1 (configuration not stated),,inactive: -2,inactive: 0.71
CCCCCC/C=C\CCCCCCCCCC1=CC(=O)C=C(OC)C1=O,inactive: 0.161,inactive: -1.12,inactive: -0.234
CCc1nn(C2CCCC2)c2c1CCn1c(-c3cccs3)nnc1-2,inactive: -0.91,inactive: -0.708,inactive: 0.506
COc1cc(C(=O)OC(COCCC23C[C@H]4C[C@@H](C2)C[C@@H](C3)C4)CN2CCOCC2)cc(OC)c1OC (some centres not stated),inactive: -1.17,inactive: -0.739,inactive: 4.17
CC(C)(C)c1cnc(CSc2cnc(NC(=O)C3CCNCC3)s2)o1,inactive: -2.81,inactive: 0.174,inactive: 0.978
"Cc1ccc(C(=O)c2ccc(CC(=O)O)n2C)cc1 [tolmetin, Gilead]",inactive: -2.52,inactive: -1.22,inactive: -1.59

SMILES,TEAD-luciferase reporter activity (compound concentration: 2 uM),TEAD-luciferase reporter activity (compound concentration: 200 nM),TEAD-luciferase reporter activity (compound concentration: 10 uM)
O=c1c2ccccc2ncn1CCOCCOc1ccccc1F,inactive: -1.01,inactive: -0.454,inactive: -1.06
C=C[C@]1(C)C[C@@H](OC(=O)CSC(C)(C)CNC(=O)[C@H](N)C(C)C)C2(C)[C@H](C)CCC3(CCC(=O)[C@H]32)[C@@H](C)[C@@H]1O (some centres not stated) [Valnemulin (Hydrochloride)],inactive: -0.525,inactive: 0.935,inactive: -0.765
C#CCN(Cc1ccc2nc(N)[nH]c(=O)c2c1)c1ccc(C(=O)N[C@@H](CCC(=O)O)C(=O)O)cc1,inactive: -0.0592,inactive: 0.247,inactive: -0.957
OCC1OC(n2ncc3c(O)ncnc32)C(O)C1O (configuration not stated) [Allopurinol riboside],inactive: -0.673,inactive: -0.466,inactive: 0.884
O=C(C1CCCC1)N1CCN(c2nc3ncccc3o2)CC1,,inactive: -1.13,inactive: 2.76
CC[C@H]1OC(=O)[C@H](C)[C@@H](O)[C@H](C)[C@@H](O[C@@H]2O[C@H](C)CC(N(C)C(C)=O)[C@H]2O)[C@](C)(O)C[C@@H](C)[C@H](O)[C@H](C)[C@@H](O)[C@]1(C)O (some centres not stated),inactive: -0.802,inactive: -0.287,inactive: 0.382
O=C(O)[C@@H](S)[C@@H](S)C(=O)O [succimer],inactive: 2.92,inactive: -1.02,inactive: -0.141
O=C(NC1CCNCC1)[C@@H]1CC[C@@H]2CN1C(=O)N2OS(=O)(=O)O [Relebactam],inactive: 1.96,inactive: -0.38,inactive: 1.76
COc1ccc(CN2CCC(N3CCCC3=O)CC2)cc1,,inactive: -1.84,inactive: 1.28
CCOP(=O)(OCC)C(=Cc1cc(C(C)(C)C)c(O)c(C(C)(C)C)c1)P(=O)(OCC)OCC,inactive: -0.422,inactive: 0.169,inactive: 0.347
CCn1ncc2c3c(NCc4ccc(OC)c(Cl)c4)nnc(-n4cnc(C(=O)NC)c4)c3cnc21,inactive: -2.37,inactive: -1.76,inactive: -0.49
CNc1nc(C(C)c2ccc(-c3ccccc3)c(F)c2)cs1 (configuration not stated),inactive: 1.81,inactive: -1.21,inactive: -0.416
CN(C)CCCN1c2ccccc2C(c2ccccc2)=Nc2cccnc21 [Tampramine],inactive: 0.187,inactive: -0.704,inactive: 0.56
COc1ccc(C2CNC(=O)NC2)cc1O[C@H]1C[C@@H]2CC[C@H]1C2 [Atizoram],inactive: 0.469,inactive: -3.24,inactive: -0.333
CCOc1ccc2nc3cc(N)ccc3c(N)c2c1,inactive: -0.637,inactive: -1.61,inactive: -0.088
COc1cc(-n2cnc3cc(-c4ccc(Cl)cc4)sc3c2=O)ccc1N1CC[C@@H](OC(=O)[C@@H](N)C(C)C)C1,inactive: -0.774,inactive: 0.941,inactive: -0.698
Cc1cccc(OCC(O)CNC(C)C)c1 (configuration not stated),inactive: -0.881,inactive: 0.0218,inactive: 3.09
COc1cc2c(cc1OC)[C@@H]1CN(C)CC[C@@H]1N=C2c1ccc(NC(C)=O)cc1 [Benafentrine dimaleate],inactive: -1.65,inactive: 0.311,inactive: 1.31
C=CC(=O)Nc1ccc2ncnc(Nc3cc(Cl)c(Cl)cc3F)c2c1,inactive: -1.22,inactive: -1.3,inactive: -1.1
CN(C)CC1CCOC1(c1ccccc1)c1ccccc1 (configuration not stated),inactive: -1.03,inactive: 0.329,inactive: -1.19
Cc1cc2ccccn2c1C(=O)c1ccc(Oc2ccccc2)cc1,inactive: -0.276,inactive: -0.441,inactive: -0.995
C[C@@H]1CC2C3C[C@H](F)C4=CC(=O)C=CC4(C)[C@@]3(F)C(O)CC2(C)[C@@]1(O)C(=O)COC(=O)C(C)(C)C (some centres not stated),inactive: -0.0129,inactive: 0.323,inactive: -0.347
COC(=O)N[C@H](C(=O)N1CCC[C@H]1C(=O)Nc1ccc([C@@H]2CC[C@@H](c3ccc(NC(=O)[C@@H]4CCCN4C(=O)[C@@H](NC(=O)OC)C(C)C)cc3)N2c2ccc(C(C)(C)C)cc2)cc1)C(C)C [Ombitasvir],inactive: -0.506,inactive: 0.429,inactive: -1.14
N=C(N)NCCCNC(=O)[C@@H]1CCCCN1C(=O)[C@@H](CC1CCCCC1)NCC(=O)O,inactive: -1.42,inactive: 0.771,inactive: -0.708
COC(=O)c1c2n(c3ccccc13)Cc1ccccc1N1CCN(C)CC21 (configuration not stated),inactive: -0.65,inactive: -2.02,active: 5.6
CNCC=C(c1ccccc1)c1ccccc1,inactive: -1.66,inactive: -0.723,inactive: 0.18
CC(N1CCN(c2ccc(-n3cnn(Cc4ccc(OC(F)(F)F)cc4)c3=O)cc2)CC1)C(O)(Cn1cncn1)c1ccc(F)cc1F (configuration not stated),inactive: 0.292,inactive: 0.216,inactive: 1.75

# Reformatted tab-delimited: entries from further up.
SMILES	TEAD-luciferase reporter activity (compound concentration: 2 uM)	TEAD-luciferase reporter activity (compound concentration: 200 nM)	TEAD-luciferase reporter activity (compound concentration: 10 uM)
CNc1nc(C(C)c2ccc(-c3ccccc3)c(F)c2)cs1 (configuration not stated)	inactive: 1.81	inactive: -1.21	inactive: -0.416
CN(C)CCCN1c2ccccc2C(c2ccccc2)=Nc2cccnc21 [Tampramine]	inactive: 0.187	inactive: -0.704	inactive: 0.56
COc1ccc(C2CNC(=O)NC2)cc1O[C@H]1C[C@@H]2CC[C@H]1C2 [Atizoram]	inactive: 0.469	inactive: -3.24	inactive: -0.333
CCOc1ccc2nc3cc(N)ccc3c(N)c2c1	inactive: -0.637	inactive: -1.61	inactive: -0.088
COc1cc(-n2cnc3cc(-c4ccc(Cl)cc4)sc3c2=O)ccc1N1CC[C@@H](OC(=O)[C@@H](N)C(C)C)C1	inactive: -0.774	inactive: 0.941	inactive: -0.698
Cc1cccc(OCC(O)CNC(C)C)c1 (configuration not stated)	inactive: -0.881	inactive: 0.0218	inactive: 3.09
COc1cc2c(cc1OC)[C@@H]1CN(C)CC[C@@H]1N=C2c1ccc(NC(C)=O)cc1 [Benafentrine dimaleate]	inactive: -1.65	inactive: 0.311	inactive: 1.31
C=CC(=O)Nc1ccc2ncnc(Nc3cc(Cl)c(Cl)cc3F)c2c1	inactive: -1.22	inactive: -1.3	inactive: -1.1
CN(C)CC1CCOC1(c1ccccc1)c1ccccc1 (configuration not stated)	inactive: -1.03	inactive: 0.329	inactive: -1.19
Cc1cc2ccccn2c1C(=O)c1ccc(Oc2ccccc2)cc1	inactive: -0.276	inactive: -0.441	inactive: -0.995
